Patent US5480970A, “Metal chelators” (Resolution Pharmaceuticals, priority 1993, dated 1996)

test: Labelling chelators with 99m Tc (Sep-Pak separation); type: physicochemical; conditions: C-18 Sep-Pak, EtOH-saline (1:1) eluate

| Substance | Chelator (EtOH-saline eluate); extent of complexation of 99m Tc by radioactivity of eluted fractions |
| --- | --- |
| (Pic-Gly-Cys-Gly)-εNH-Lys(-Gly-OH)-Tyr-Nleu-Phe-Leu-Nleu-for [RP-022, ID NO: 11] | 29% of total |
| Pic-Gly-Cys(Acm)-Gly-OH [RP-049, ID NO: 8] | 92% of total |
| (Pic-Gly-Cys(Acm)-Gly)-ε-NH-Lys(-Asp-Gly-OH)-Lys-Tyr-Nleu-Phe-Leu- Nleu-for [RP-056, ID No. 13] | 78% of total |
| (Pic-Ser-Cys(Acm)-Gly)-Thr-Lys-Pro-Pro-Arg-OH [RP-063, ID NO: 9] | 93% of total |
| (Pic-Ser-Cys(Acm)-Gly)-Lys-Pro-Pro-Arg-OH [RP-065, ID NO: 10] | 92% of total |
| (Pic-Gly-Cys(Acm)-Gly)-εNH-Lys(-Gly-OH)-Tyr-Nleu-Phe-Leu-Nleu-for [RP-050, ID NO: 12] | 63% of total |
